Data as given in PubChem BioAssay AID1259254 (NCATS, 2017)
Here is an unselected part of about 59,000 reagents tested. About 1,550 of them (2.6%) count as active. 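G2 share is only a proxy for re-replication; each gene was hit by three separate siRNAs, and active genes were retested.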 Reagents against one gene are numbered here. Not all columns of the deposit are shown. Not stated in the record: the amount of reagent.

Purpose: 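Finding genes that stop cells copying their DNA twice in one cycle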 (primary screen)
Cell system: human HCT116 colorectal cancer cells
Reagents: single siRNA against human genes
Timing: 3 days
Detection: 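Imaged Hoechst DNA stain sorts each cell into a cycle phase by DNA amount; per plate, G2 fraction set to 0% for non-targeting and 100% for GMNN siRNA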
Direction: G2 robust z-score and G2 cells, % of GMNN control: higher = more G2 cells, more excess DNA replication
Rule for the call: 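An siRNA counts as active if its G2 robust z-score lies at least 5 MADs above the screen median; here such calls match roughly 38% of GMNN control or more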

{"gene": "FMNL2 (GeneID 114793)", "reagent no.": 1, "G2 robust z-score": 4.11, "G2 cells, % of GMNN control": 31.9, "activity call": "inactive"}
{"gene": "FMNL2 (GeneID 114793)", "reagent no.": 2, "G2 robust z-score": 1.02, "G2 cells, % of GMNN control": 10.2, "activity call": "inactive"}
{"gene": "FMNL2 (GeneID 114793)", "reagent no.": 3, "G2 robust z-score": 2.19, "G2 cells, % of GMNN control": 18.4, "activity call": "inactive"}
{"gene": "ADAM15 (GeneID 8751)", "reagent no.": 1, "G2 robust z-score": -0.751, "G2 cells, % of GMNN control": -2.32, "activity call": "inactive"}
{"gene": "ADAM15 (GeneID 8751)", "reagent no.": 2, "G2 robust z-score": 0.672, "G2 cells, % of GMNN control": 7.7, "activity call": "inactive"}
{"gene": "ADAM15 (GeneID 8751)", "reagent no.": 3, "G2 robust z-score": 0.711, "G2 cells, % of GMNN control": 7.97, "activity call": "inactive"}
{"gene": "XAGE5 (GeneID 170627)", "reagent no.": 1, "G2 robust z-score": 0.161, "G2 cells, % of GMNN control": 4.1, "activity call": "inactive"}
{"gene": "XAGE5 (GeneID 170627)", "reagent no.": 2, "G2 robust z-score": -1.14, "G2 cells, % of GMNN control": -5.07, "activity call": "inactive"}
{"gene": "XAGE5 (GeneID 170627)", "reagent no.": 3, "G2 robust z-score": -0.569, "G2 cells, % of GMNN control": -1.03, "activity call": "inactive"}
{"gene": "ATOSA (GeneID 56204)", "reagent no.": 1, "G2 robust z-score": -0.518, "G2 cells, % of GMNN control": -0.679, "activity call": "inactive"}
{"gene": "ATOSA (GeneID 56204)", "reagent no.": 2, "G2 robust z-score": -0.0281, "G2 cells, % of GMNN control": 2.77, "activity call": "inactive"}
{"gene": "ATOSA (GeneID 56204)", "reagent no.": 3, "G2 robust z-score": -0.744, "G2 cells, % of GMNN control": -2.27, "activity call": "inactive"}
{"gene": "ZP3 (GeneID 7784)", "reagent no.": 1, "G2 robust z-score": 3.99, "G2 cells, % of GMNN control": 31.1, "activity call": "inactive"}
{"gene": "ZP3 (GeneID 7784)", "reagent no.": 2, "G2 robust z-score": 1.86, "G2 cells, % of GMNN control": 16, "activity call": "inactive"}
{"gene": "ZP3 (GeneID 7784)", "reagent no.": 3, "G2 robust z-score": 2.37, "G2 cells, % of GMNN control": 19.7, "activity call": "inactive"}
{"gene": "FGF17 (GeneID 8822)", "reagent no.": 1, "G2 robust z-score": 1.6, "G2 cells, % of GMNN control": 14.2, "activity call": "inactive"}
{"gene": "FGF17 (GeneID 8822)", "reagent no.": 2, "G2 robust z-score": -0.207, "G2 cells, % of GMNN control": 1.51, "activity call": "inactive"}
{"gene": "FGF17 (GeneID 8822)", "reagent no.": 3, "G2 robust z-score": 1.29, "G2 cells, % of GMNN control": 12, "activity call": "inactive"}

2 entries from above, ordered by “G2 robust z-score”, descending.
{"gene": "FGF17 (GeneID 8822)", "reagent no.": 3, "G2 robust z-score": 1.29, "G2 cells, % of GMNN control": 12, "activity call": "inactive"}
{"gene": "FGF17 (GeneID 8822)", "reagent no.": 2, "G2 robust z-score": -0.207, "G2 cells, % of GMNN control": 1.51, "activity call": "inactive"}
